Assay results from the supplement of paper PMC5355238.
Structures can show the parent of a compound that is named as a salt. ± gives the standard deviation of the averaged measurements. The list shows a part of the results. Many values rest on one well or one pass, so single values are uncertain.

System: Reh
Assay: S-phase gammaH2AX median, Z-score vs plate median (drug alone); higher = more S-phase DNA damage
Conditions: MK1775 concentration 0 nM; 10 µM; 4 h

Row | SMILES | S-phase gammaH2AX median (Z-score)
1 | C[N+]1(C)CCN(c2ccccc2)CC1 [1,1-Dimethyl-4-phenyl-piperazinium iodide] | -0.142
2 | C[C@@H](N)Cc1cnc[nH]1 [Histamine, R(-)-alpha-methyl-, dihydrochloride] | 0
3 | Clc1cc(I)cc(Cl)c1NC1=NCCN1 [p-Iodoclonidine hydrochloride] | 0.154
4 | C[C@@H]1O[C@@H](O[C@H]2C[C@@H](O)[C@]3(CO)[C@H]4[C@H](O)C[C@]5(C)[C@@H](C6=CC(=O)OC6)CC[C@]5(O)[C@@H]4CC[C@]3(O)C2)[C@H](O)[C@H](O)[C@H]1O [Ouabain] | 0.0142
5 | NCCCP(=O)(O)O [3-Aminopropylphosphonic acid] | -0.0718
6 | CNCCc1c[nH]c2ccc(O)cc12 [N-omega-Methyl-5-hydroxytryptamine oxalate salt] | 0.161
7 | COc1ccc(Cc2nccc3cc(OC)c(OC)cc23)cc1OC [Papaverine hydrochloride] | -0.026
8 | NNC(=O)c1ccc(O)cc1 [4-Hydroxybenzhydrazide] | 0.107
9 | COC(=O)C1=CCCN(C)C1 [Arecoline hydrobromide] | -0.0175
10 | C=C(C)[C@H]1Cc2c(ccc3c2O[C@@H]2COc4cc(OC)c(OC)cc4[C@@H]2C3=O)O1 [Rotenone] | 0
11 | Fc1ccc(C(OCCN2CCN(CCCc3ccccc3)CC2)c2ccc(F)cc2)cc1 | -0.265
12 | N[C@@H](CCl)C(=O)O [beta-Chloro-L-alanine hydrochloride] | 0.0408
13 | NNC(N)=O [Semicarbazide hydrochloride] | 0.0868
14 | O=C[C@H](Cl)[C@@H](O)[C@H](O)[C@H](O)CO [2-Chloro-2-deoxy-D-glucose] | 0.0505
15 | CCCN(CCC)C1CCc2ccc(O)cc2C1 (stereo not drawn) [(?)-7-Hydroxy-DPAT hydrobromide] | -0.0504
16 | CCCN(CCC)C1CCc2ccc(O)cc2C1 (stereo not drawn) [R-(+)-7-Hydroxy-DPAT hydrobromide] | 0.148
17 | Oc1cc2c(cc1O)[C@H]1c3ccccc3CN[C@@H]1CC2 (racemic) [Dihydrexidine hydrochloride] | 0.224
18 | N[C@H](CCCCCP(=O)(O)O)C(=O)O [D(-)-2-Amino-7-phosphonoheptanoic acid] | -0.0874
19 | CC(=O)Nc1ccc(OC[C@](C)(O)C(=O)Nc2ccc([N+](=O)[O-])c(C(F)(F)F)c2)cc1 [Andarine (GTX-007)] | 0.0313
20 | CC(N)Cc1c[nH]c2ccc(O)cc12 (stereo not drawn) [alpha-Methyl-5-hydroxytryptamine maleate] | 0.237
21 | CN(N=O)c1cc(O)ccc1O [Dephostatin] | -0.0063
22 | O=C1CCCN1CC#CCN1CCCC1 [Oxotremorine sesquifumarate salt] | 0.0142
23 | C[N+](C)(C)CC#CCOC(=O)Nc1cccc(Cl)c1 | -0.0311
24 | CN1C[C@@H](NS(=O)(=O)N(C)C)C[C@@H]2c3cccc4c3c(cn4C)C[C@H]21 [Mesulergine hydrochloride] | 0.0686
25 | Oc1ccc2c3c1O[C@H]1c4[nH]c5c(c4C[C@@]4(O)[C@@H](C2)N(CC2CC2)CC[C@]314)C[C@@]1(O)[C@H]2Cc3ccc(O)c4c3[C@@]1(CCN2CC1CC1)[C@H]5O4 [nor-Binaltorphimine dihydrochloride] | -0.0568

Row | SMILES | S-phase gammaH2AX median (Z-score)
26 | CCCCc1ccc(C(=O)O)nc1 [Fusaric acid] | -0.22
27 | CCCN1C[C@H](CSC)C[C@@H]2c3cccc4[nH]cc(c34)C[C@H]21 [Pergolide methanesulfonate] | 0.333
28 | N.N.[Cl][Pt][Cl] [Cisplatin] | 0.13 ± 0.11
29 | COc1ccc2[nH]cc(CCN)c2c1 [O-Methylserotonin hydrochloride] | -0.026
30 | Cc1ncc(CNC(=O)N(CCCl)N=O)c(N)n1 [Nimustine hydrochloride] | -0.0355
31 | C#C[C@]1(O)CC[C@H]2[C@@H]3CCC4=Cc5nc6nc7ccccc7n6cc5C[C@]4(C)[C@H]3CC[C@@]21C | 0.0601
32 | Clc1cccc(N2CCNCC2)c1 [1-(3-Chlorophenyl)piperazine dihydrochloride] | 0.107
33 | CC[C@@]1(O)C(=O)OCc2c1cc1n(c2=O)Cc2cc3ccccc3nc2-1 [(S)-(+)-Camptothecin] | 10.9
34 | COc1ccc2c3c1O[C@H]1C(=O)CC[C@@]4(O)C(C2)N(CC2CC2)CCC314 (single isomer, unassigned; (-)) [(-)-3-Methoxynaltrexone hydrochloride] | -0.0993
35 | Cc1c(C(=O)c2cccc3ccccc23)c2cccc3c2n1[C@H](CN1CCOCC1)CO3 [( R)-(+)-WIN 55,212-2 mesylate] | -0.821
36 | CCN(CC)C(=O)NC1C=C2c3cccc4[nH]cc(c34)CC2N(C)C1 (stereo not drawn) [S-(-)-Lisuride] | 0.0237
37 | CC(CCc1ccccc1)NC(C)C(O)c1ccc(O)cc1 (stereo not drawn) [Nylidrin hydrochloride] | 0.0591
38 | CC1C2Cc3ccc(O)cc3C1(C)CCN2CC1CC1 (single isomer, unassigned; (+)) [(+)-Cyclazocine] | -0.0408
39 | CN1C[C@H](C(=O)N[C@]2(C)O[C@@]3(O)[C@@H]4CCCN4C(=O)[C@H](Cc4ccccc4)N3C2=O)C[C@@H]2c3cccc4[nH]cc(c34)C[C@H]21 [Dihydroergotamine methanesulfonate] | -0.164
40 | O=C1NCN(c2ccccc2)C12CCN(CC1COc3ccccc3O1)CC2 (stereo not drawn) [Spiroxatrine] | -0.254
41 | C[N+]1(C)[C@@H]2CC[C@H]1C[C@@H](OC(=O)C(CO)c1ccccc1)C2 (stereo partly drawn) [Atropine methyl nitrate] | -0.00194
42 | C[N+]1(C)[C@@H]2CC[C@H]1C[C@@H](OC(=O)C(CO)c1ccccc1)C2 (stereo partly drawn) [Atropine methyl bromide] | 0.0175
43 | c1ccc2nc(N3CCNCC3)ccc2c1 [Quipazine dimaleate] | 0.0639
44 | C[N+](C)(C)CCCCCCCCCC[N+](C)(C)C [Decamethonium dibromide] | -0.142
45 | CN1CCC(c2c[nH]c3ccc(O)cc23)CC1 | -0.0252
46 | CC(C)[C@@]1(NC(=O)[C@@H]2C[C@@H]3c4cccc5[nH]cc(c45)C[C@H]3N(C)C2)O[C@@]2(O)[C@@H]3CCCN3C(=O)[C@H](Cc3ccccc3)N2C1=O [Dihydroergocristine methanesulfonate] | -0.132
47 | CC1Cc2cc3c(cc2C(c2ccc(N)cc2)=NN1)OCO3 (stereo not drawn) | 0.296
48 | CC(N)Cc1c[nH]c2ccc(OCc3cccs3)cc12 (stereo not drawn) | -0.0971
49 | NC(=O)CN1CC(O)CC1=O (stereo not drawn) [Oxiracetam] | 0.0639
50 | COc1ccc(CNC(=O)/C=C/c2ccc3[nH]cc(CCN(C)C)c3c2)cc1 | 0.0155

Single values from the entries so far:
Under S-phase gammaH2AX median (Z-score), C#C[C@]1(O)CC[C@H]2[C@@H]3CCC4=Cc5nc6nc7ccccc7n6cc5C[C@]4(C)[C@H]3CC[C@@]21C reads 0.0601
Under S-phase gammaH2AX median (Z-score), CN1CCC(c2c[nH]c3ccc(O)cc23)CC1 reads -0.0252
Under S-phase gammaH2AX median (Z-score), Cc1c(C(=O)c2cccc3ccccc23)c2cccc3c2n1[C@H](CN1CCOCC1)CO3 [( R)-(+)-WIN 55,212-2 mesylate] reads -0.821

Continuation:

Row | SMILES | S-phase gammaH2AX median (Z-score)
51 | C[N+](C)(C)CC#CCN1CCCC1=O [Oxotremorine methiodide] | -0.0355
52 | NC(=O)c1ccc(OCC(O)CN2CC=C(c3ccc(F)cc3)CC2)cc1 (stereo not drawn) | 0.0601
53 | C[N+]1(C)CCOC(O)(c2ccc(-c3ccc(C4(O)C[N+](C)(C)CCO4)cc3)cc2)C1 (stereo not drawn) [Hemicholinium-3] | 0
54 | COc1ccc(-n2nc(C(F)(F)F)cc2-c2ccc(Cl)cc2)cc1 | 0.0601
55 | Nc1ccncc1 [4-Aminopyridine] | -0.0932
56 | COc1cc(C=C(C#N)C#N)cc(O)c1O [Tyrphostin AG 34] | 0.0868
57 | CO[C@H]1CC=C2CCN3CCC4=C(CC(=O)OC4)[C@]23C1 [Dihydro-beta-erythroidine hydrobromide] | -0.0787
58 | Cc1[nH]c2ccc(O)cc2c1CCN [2-Methyl-5-hydroxytryptamine maleate] | -0.423
59 | C=CCN1CCc2cccc3c2[C@H]1Cc1ccc(O)c(O)c1-3 [R(-)-N-Allylnorapomorphine hydrobromide] | 0.173
60 | COc1ccc(C(=O)N2CCCC2=O)cc1 [Aniracetam] | -0.0621
61 | CCCCCCCCCCCCCC(=O)O[C@@H]1[C@@H](C)[C@@]2(O)[C@@H](C=C(CO)C[C@]3(O)C(=O)C(C)=C[C@@H]23)[C@@H]2C(C)(C)[C@]12OC(C)=O [Phorbol 12-myristate 13-acetate] | -0.284
62 | O=C(O)CCCc1ccc(N(CCCl)CCCl)cc1 [Chlorambucil] | 0.596
63 | NCC(O)c1cc(O)c(O)cc1F (stereo not drawn) [6-Fluoronorepinephrine hydrochloride] | 0.0155
64 | CCS(=O)(=O)Nc1cccc(C(=C2CCCCC2)c2cnc[nH]2)c1 | -0.0777
65 | CC1=C[C@@H]2c3cccc4[nH]cc(c34)C[C@H]2N(C)C1 [Agroclavine] | 0.173
66 | O=c1[nH]c2ccccc2n1CCCN1CCC(n2c(=O)[nH]c3cc(Cl)ccc32)CC1 [Domperidone] | -0.0283
67 | C=CCN1CC[C@]23c4c5ccc(O)c4O[C@H]2/C(=N/NC(=O)c2ccccc2)CC[C@@]3(O)[C@H]1C5 [Naloxone benzoylhydrazone] | 0.0497
68 | NC(N)=NOCC[C@H](N)C(=O)O [L-Canavanine sulfate] | -0.0699
69 | CCN(CC)C(=O)NC1CC2c3cccc4[nH]cc(c34)CC2N(C)C1 (stereo not drawn) [R(+)-Terguride] | -0.254
70 | CCN(CC)C(=O)N[C@H]1C=C2c3cccc4[nH]cc(c34)C[C@H]2N(C)C1 [R(+)-Lisuride hydrogen maleate] | 0.0733
71 | S=C(NC1CCCCC1)N1CCC(c2cnc[nH]2)CC1 [Thioperamide maleate] | 0.3
72 | COc1ccc2c(c1)[C@]13CCCC[C@@H]1[C@H](C2)N(C)CC3 [Dextromethorphan hydrobromide monohydrate] | -0.0157
73 | COC[C@H]1OC(=O)c2coc3c2[C@@]1(C)C1=C(C3=O)[C@@H]2CCC(=O)[C@@]2(C)C[C@H]1OC(C)=O [Wortmannin from Penicillium funiculosum] | -0.214
